Screening data, single-dose tests

The chains behind the UniProt entries cited, without tags or fusion partners. Residues count along the entry.
UniProt Q8IDJ8, 1-583: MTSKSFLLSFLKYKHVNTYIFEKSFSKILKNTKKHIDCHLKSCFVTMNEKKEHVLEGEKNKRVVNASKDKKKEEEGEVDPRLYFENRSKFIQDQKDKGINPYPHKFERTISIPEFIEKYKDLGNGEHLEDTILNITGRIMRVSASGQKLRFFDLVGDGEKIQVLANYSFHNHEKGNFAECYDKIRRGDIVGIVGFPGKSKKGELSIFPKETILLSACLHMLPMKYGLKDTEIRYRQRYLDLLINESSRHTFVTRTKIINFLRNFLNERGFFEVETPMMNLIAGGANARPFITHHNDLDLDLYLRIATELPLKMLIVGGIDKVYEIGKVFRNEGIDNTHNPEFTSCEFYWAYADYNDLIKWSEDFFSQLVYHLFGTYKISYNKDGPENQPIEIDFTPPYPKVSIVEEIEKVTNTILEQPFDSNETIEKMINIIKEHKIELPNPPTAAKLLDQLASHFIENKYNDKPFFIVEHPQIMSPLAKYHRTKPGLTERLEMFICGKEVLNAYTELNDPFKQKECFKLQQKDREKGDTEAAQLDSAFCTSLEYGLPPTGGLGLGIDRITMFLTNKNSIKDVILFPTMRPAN
UniProt I6X8D2, whole entry: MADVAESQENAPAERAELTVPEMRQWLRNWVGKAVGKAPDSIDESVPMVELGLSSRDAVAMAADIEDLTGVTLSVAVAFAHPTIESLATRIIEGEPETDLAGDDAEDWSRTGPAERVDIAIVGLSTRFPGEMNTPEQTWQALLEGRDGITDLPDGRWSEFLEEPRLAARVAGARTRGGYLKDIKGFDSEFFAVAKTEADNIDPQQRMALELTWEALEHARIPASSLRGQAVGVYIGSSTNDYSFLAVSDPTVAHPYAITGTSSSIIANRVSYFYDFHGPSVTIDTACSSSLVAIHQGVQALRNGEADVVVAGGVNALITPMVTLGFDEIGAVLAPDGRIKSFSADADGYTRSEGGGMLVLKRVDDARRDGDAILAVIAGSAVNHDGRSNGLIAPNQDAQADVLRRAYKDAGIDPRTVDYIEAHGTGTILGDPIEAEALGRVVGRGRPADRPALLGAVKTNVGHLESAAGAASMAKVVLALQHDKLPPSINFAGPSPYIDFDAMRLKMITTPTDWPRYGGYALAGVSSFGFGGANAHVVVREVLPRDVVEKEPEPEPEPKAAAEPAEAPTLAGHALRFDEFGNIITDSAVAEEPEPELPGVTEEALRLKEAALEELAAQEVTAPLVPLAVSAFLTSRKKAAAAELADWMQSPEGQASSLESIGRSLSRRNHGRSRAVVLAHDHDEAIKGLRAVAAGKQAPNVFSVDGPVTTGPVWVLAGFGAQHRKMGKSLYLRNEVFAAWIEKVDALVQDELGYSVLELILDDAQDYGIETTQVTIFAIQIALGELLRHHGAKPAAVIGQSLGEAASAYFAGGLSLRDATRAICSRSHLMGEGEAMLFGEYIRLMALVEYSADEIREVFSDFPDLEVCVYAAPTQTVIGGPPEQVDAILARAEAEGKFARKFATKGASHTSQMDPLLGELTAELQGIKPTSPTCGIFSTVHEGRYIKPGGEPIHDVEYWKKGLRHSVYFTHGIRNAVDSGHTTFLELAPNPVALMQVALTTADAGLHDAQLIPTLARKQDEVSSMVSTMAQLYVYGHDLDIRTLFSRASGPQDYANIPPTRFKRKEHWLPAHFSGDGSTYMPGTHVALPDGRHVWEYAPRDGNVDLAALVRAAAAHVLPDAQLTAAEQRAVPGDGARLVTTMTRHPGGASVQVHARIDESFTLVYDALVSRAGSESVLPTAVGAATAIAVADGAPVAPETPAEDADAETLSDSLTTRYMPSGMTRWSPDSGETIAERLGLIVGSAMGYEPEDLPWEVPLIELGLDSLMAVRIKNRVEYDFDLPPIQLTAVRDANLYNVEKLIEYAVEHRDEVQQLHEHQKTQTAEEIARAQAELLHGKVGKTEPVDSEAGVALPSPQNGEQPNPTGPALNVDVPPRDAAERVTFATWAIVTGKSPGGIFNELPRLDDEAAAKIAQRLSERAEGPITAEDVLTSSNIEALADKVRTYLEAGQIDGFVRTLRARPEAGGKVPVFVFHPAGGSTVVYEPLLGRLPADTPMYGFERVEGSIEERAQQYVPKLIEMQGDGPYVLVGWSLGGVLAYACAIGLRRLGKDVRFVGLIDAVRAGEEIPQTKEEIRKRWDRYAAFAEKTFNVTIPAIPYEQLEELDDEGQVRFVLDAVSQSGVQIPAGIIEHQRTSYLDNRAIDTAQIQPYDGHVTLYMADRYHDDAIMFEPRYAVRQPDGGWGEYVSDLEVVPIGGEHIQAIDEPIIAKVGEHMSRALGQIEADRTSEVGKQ
UniProt P9WPC5, whole entry: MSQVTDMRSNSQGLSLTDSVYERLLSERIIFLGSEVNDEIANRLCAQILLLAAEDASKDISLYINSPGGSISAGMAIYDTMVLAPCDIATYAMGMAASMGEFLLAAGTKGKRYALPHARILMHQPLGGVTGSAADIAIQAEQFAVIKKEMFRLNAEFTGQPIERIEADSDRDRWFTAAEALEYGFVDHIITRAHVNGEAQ
UniProt P9WPC3, whole entry partner: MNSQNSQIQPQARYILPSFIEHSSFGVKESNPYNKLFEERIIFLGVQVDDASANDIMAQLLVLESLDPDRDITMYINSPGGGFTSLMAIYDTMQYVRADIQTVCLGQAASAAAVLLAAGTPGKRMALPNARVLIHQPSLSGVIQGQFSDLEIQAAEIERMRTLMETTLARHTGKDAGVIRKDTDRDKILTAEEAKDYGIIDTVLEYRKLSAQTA

From ChEMBL document CHEMBL3988442, “University of Dundee, Small-Polar-MMV Screening Library” (2021).

PfKRS1: 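Lysine-tRNA ligase, Plasmodium falciparum 3D7 (UniProt Q8IDJ8). Enzyme assay of the cytosolic lysyl-tRNA synthetase in 384-well plates, read by luminescence. Concentration: 30 µM. Higher reads as stronger inhibition, judged from the few compounds that gave an IC50. Of about 69,000 compounds tested this way, about 49 (0.071%) reached 50% or more in at least one test.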
Pks13 thioesterase: 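Polyketide synthase Pks13, Mycobacterium tuberculosis (UniProt I6X8D2). Enzyme assay of the thioesterase domain of polyketide synthase 13; the read-out is not stated. Tested at 30 µM. Higher reads as stronger inhibition (inferred from which compounds were picked for retests). Of about 67,000 compounds tested this way, about 300 (0.46%) reached 50% or more in at least one test.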
ClpP1P2: 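ClpP1P2, Mycobacterium tuberculosis (UniProt P9WPC5 and UniProt P9WPC3). Protease assay of ClpP1P2, read by the AMC dye that it sets free. Concentration: 50 µM. Higher reads as stronger inhibition, judged from the few compounds that gave an IC50. Most other retested compounds had strongly negative values. Size under these conditions: about 69,000 compounds, about 10 of them at 50% or above in at least one test.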

The filed quantity is “Percent Effect” (%). The record does not define 0% and 100%; most values in the screen are far below 50% and negative numbers occur (in some assays of this library far below -100). Compounds were drawn at random from those tested, without regard to their results. A dash means the value is not listed here; it may have been measured.

Compound,PfKRS1,Pks13 thioesterase,ClpP1P2
Cc1nc(N2CCCC2)nc2c1CCN(C(=O)NC(C)C)CC2,-1.586%,35.2%,18.92%
O=C1NCCN1CCNc1cc(-c2ccncc2)nc2ccnn12,4.054%,-0.6107%,-10.89%
C1CCC(c2nc3c(c(N4CCN5CCCC5C4)n2)CCNCC3)C1 (stereo not drawn),1.377%,-35.09%,-2.959%
CN(C)C(=O)C1CCC2(CCN(C(=O)Nc3ccccc3)CC2)O1 (stereo not drawn),1.886%,-17.3%,2.882%
COCCN(CCOC)C(=O)c1c[nH]nc1-c1cccc(F)c1,-0.2232%,22.04%,2.72%
O=C(NCCCNc1ccccc1)c1scnc1Cl,3.984%,-7.815%,-3.512%
COCCN1CCN(Cc2csc(-c3cnn(C)c3)n2)CC1,-2.044%,-10.77%,-26.19%
CN(C)S(=O)(=O)c1ccc(CN2CCCC2c2ccsc2)o1 (stereo not drawn),1.249%,6.427%,-38.19%
CC(=O)N1CCC(c2nc(Cc3ccccc3)no2)C1 (stereo not drawn),8.028%,-24.92%,-5.957%
Cc1csc2ncc(-c3ccnc(N4CCCN(C)CC4)n3)c(=O)n12,0.552%,37.86%,-189.9%
COc1c(CNCc2ccnc(N(C)C)c2)c(C(C)C)nn1C,-1.624%,-8.221%,-34.55%
CC(Cn1cncn1)NCCN1CCc2ccccc2C1 (stereo not drawn),1.081%,-10.7%,-2.569%
CCC(=O)N1CCC(c2cncc(Oc3cccnc3)n2)CC1,4.017%,10.43%,0.583%
COc1ncccc1CNC(=O)N(Cc1ccccc1F)C1CC1,0.8354%,-1.282%,-19%
CN1CCN(C(=O)CCn2ncc3ccccc32)CC(C(N)=O)C1 (stereo not drawn),2.312%,-4.615%,-9.354%
O=C(c1cccnc1)N1CCCC2(CCN(c3ccsc3)C2=O)C1 (stereo not drawn),-3.495%,-8.395%,2.724%
COc1ncc(C(F)(F)F)c(C(=O)O)c1Cl,-4.121%,12.02%,11.15%
c1cnc(N2CCO[C@H]3[C@H](OCCN4CCOCC4)CC[C@@H]32)nc1,2.901%,-43.27%,1.777%
O=C1CO[C@H]2CN(Cc3cccc(F)c3F)C[C@@H]2N1C1CCOCC1,-3.814%,-,-7.157%
CC(C)n1cnnc1CN(C)C(=O)c1cccnc1O,0.9302%,-5.652%,8.203%
COc1ccc(CNC(=O)C(NC(=O)Cc2ccccc2)C(C)C)cn1 (stereo not drawn),-6.768%,-9.49%,17.44%
Cn1ccnc1CN1CCN(c2ccc(C#N)cn2)CC1,4.285%,-,4.123%
Cc1cc(CC(=O)NCC(O)COc2ccc(F)c(F)c2)n[nH]1 (stereo not drawn),-4.553%,-8.213%,-5.93%
CCC(C(=O)NC1CCCC1)n1ccc2ncccc2c1=O (stereo not drawn),2.246%,-31.99%,-6.508%
Cc1cc(CN2CCN(C(C)c3nc(C(C)C)no3)CC2)no1 (stereo not drawn),5.13%,-8.383%,-6.36%
O=C1C(Nc2ccc3nccnc3n2)CCN1c1ccccc1F (stereo not drawn),3.517%,8.961%,-528.3%
O=S(=O)(Cc1ccccc1)NC[C@H]1Cn2ccnc2CO1,-4.54%,15.79%,-12.33%
c1cc2c(c(-c3cc(N4CCOCC4)ncn3)c1)CCNC2,2.946%,-49.49%,-1.756%
O=C(c1cccc(F)c1)N1CCC2(CC1)CN(c1ccccn1)CCO2,2.17%,-18.53%,10.67%
CC(=O)N1CCc2[nH]cnc2C12CCN(C(=O)Cc1cccs1)CC2,10.75%,-4.843%,-14.89%
Cc1cc2nc(C(C)C)cc(NCC(c3ccccn3)N(C)C)n2n1 (stereo not drawn),-0.2288%,-11.98%,-4.082%
Cc1cc(C)n(C2CN(CCC(=O)NCCc3ccccc3)C2)n1,0.5103%,-20.05%,-6.656%
CN(C)CCN(C)C[C@@H]1CN(C(=O)NC2CCCC2)C[C@@H]1CO,0.9985%,-0.2142%,-8.591%
CC1CN(CC(=O)Nc2ccncc2)CCN1c1nccs1 (stereo not drawn),2.799%,-7.855%,-8.763%
Cc1c(C(=O)NCc2ccnc(OCC(F)(F)F)c2)cnn1C,1.908%,-11.61%,-29.35%
COc1cccc(N2CCN(C(=O)C(OC)c3ccccc3)CC2=O)c1 (stereo not drawn),1.673%,2.054%,-8.793%
Cc1cc(C)n(CC2CCCN2CC(=O)Nc2nnc(C)s2)n1 (stereo not drawn),0.5621%,-8.294%,4.386%
COc1ncc(CN2C[C@@H]3C[C@@H](O)CN3C[C@@H]2Cc2ccccc2)cn1,-0.3715%,-13.05%,-2.871%
O=C(O)c1cccc(CC2CCN(c3ncc(F)cn3)CC2)c1,3.96%,30.85%,-0.9688%
Cc1ccccc1CN(CCN(C)C)Cc1ccc(O)c(C(=O)O)c1,6.717%,2.83%,-19%
Cc1ccc(CN2Cc3nnn(C)c3C(COCc3ccccn3)C2)s1 (stereo not drawn),1.574%,-7.095%,-10.37%
CCN(Cc1cc(Cl)ccc1OC)Cc1ncnn1CC,2.601%,-3.428%,-4.081%
O=C(CCn1cccn1)N1CC[C@@H](c2ccc3ccccc3c2)[C@H](O)C1,4.383%,-,3.429%
COc1cc(CNC(=O)c2cc(S(C)(=O)=O)ccc2C)ccn1,4.186%,8.952%,3.012%
CC(C)OCCC(=O)Nc1c(-c2ccc(F)cc2)ncn1C,2.34%,-5.314%,-2.811%
O=C(NCCN1CCNCC1)c1nc2ccccc2c(=O)[nH]1,9.481%,-13.99%,2.787%
O=C1COC2(COCCN(Cc3ccsc3)C2)CN1c1ccoc1 (stereo not drawn),2.95%,-4.141%,16.14%

For reference, 6 entries once more:

{"compound": "CC(C)n1cnnc1CN(C)C(=O)c1cccnc1O", "PfKRS1": 0.9302, "Pks13 thioesterase": -5.652, "ClpP1P2": 8.203}
{"compound": "O=C(c1cccnc1)N1CCCC2(CCN(c3ccsc3)C2=O)C1", "stereo": "stereo not drawn", "PfKRS1": -3.495, "Pks13 thioesterase": -8.395, "ClpP1P2": 2.724}
{"compound": "Cc1nc(N2CCCC2)nc2c1CCN(C(=O)NC(C)C)CC2", "PfKRS1": -1.586, "Pks13 thioesterase": 35.2, "ClpP1P2": 18.92}
{"compound": "CC(C)OCCC(=O)Nc1c(-c2ccc(F)cc2)ncn1C", "PfKRS1": 2.34, "Pks13 thioesterase": -5.314, "ClpP1P2": -2.811}
{"compound": "COc1ncc(C(F)(F)F)c(C(=O)O)c1Cl", "PfKRS1": -4.121, "Pks13 thioesterase": 12.02, "ClpP1P2": 11.15}
{"compound": "O=C(CCn1cccn1)N1CC[C@@H](c2ccc3ccccc3c2)[C@H](O)C1", "PfKRS1": 4.383, "ClpP1P2": 3.429}